The source of these data is PubChem BioAssay AID493014 (National Center for Advancing Translational Sciences (NCATS), 2011).

Some of the results follow. Further columns of the screen follow, without active or inactive calls. Compounds called inactive in the main read-out are mostly missing here. The note in brackets gives the kind of curve behind each potency; many fits are weak.

A short description of this assay: qHTS Assay to Find Inhibitors of Chronic Active B-Cell Receptor Signaling. The settings on record: ABC-DLBCL IkBa-CBG/CBR reporter, luminescence ratio (green luciferase fused to IkBa over red control in TMD8 lymphoma cells), 4 h. The essentials: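 TMD8 human ABC-DLBCL cells with doxycycline-inducible IκBα–green luciferase fusion and unfused red luciferase, in 0.5% FBS medium; compounds up to 46 uM, 4 h at 37C. Green/red luminescence ratio, filter-overlap corrected, fitted to concentration-response curves.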

Setting [1] is: measured here: CBR red luminescence, cell number.
[2] abbreviates: measured here: IkBa-CBG green luminescence.

By AC50 is commonly meant the concentration at which the activity in the assay is half-maximal. In the case of `O=C(Nc1ccc2[nH]ncc2c1)c1ccccc1Br`, the AC50 under setting [1] was 12.6 µM [falling, partial curve].

For the compound `COCc1cc(C)nc2sc(C(=O)OC)c(N)c12`, the half-maximal activity concentration (AC50) under setting [1] was 5.17 µM [falling, partial curve, poor fit]. On to `O=C1CCCCC1Sc1nnc(Nc2ccccc2)s1` (centres undefined), for which the half-maximal activity concentration (AC50) under setting [1] is 7.08 µM [falling, partial curve].

As to `CNc1nc(OCCNC(=O)Nc2ccccc2)nc(N2CCOCC2)n1`, the AC50 under setting [1] was 23.1 µM [rising, partial curve]. With `Cc1cccc(N2CCN(C3=NC(=O)/C(=C\c4cn[nH]c4-c4ccccc4)S3)CC2)c1`, the concentration at half-maximal activity (AC50) under setting [1] was 0.116 µM [rising, full curve, poor fit]. Regarding `COc1cc(/C=C(\C#N)C(=O)NCC2CCCO2)cc(OC)c1OC` (centres undefined), under setting [1], the AC50 was 22.4 µM [falling, single point]. Still for that read-out and setting: for `Cc1cc(C)n(S(=O)(=O)c2ccc(C(C)(C)C)cc2)n1` the value was 29.1 µM [rising, single point]; for `COc1ccc(C(=O)O/N=C(\N)Cc2ccc([N+](=O)[O-])cc2)c(OC)c1`, 4.47 µM [rising, partial curve]; for `O=C(c1ccc(C(F)(F)F)cc1)C1CCCN(C(=O)CCc2cnccn2)C1` (centres undefined), 5.62 µM [rising, single point]. Still for that read-out and setting: for `COc1ccc(C(=O)N(CN2CCCC2=O)c2nccs2)cc1OC` the value was 3.16 µM [falling, full curve, poor fit]; for `COc1cc(NC(=O)C2CC(=O)NC3=C2C(=O)CCC3)c(OC)cc1Cl` (centres undefined), 22.4 µM [rising, single point]. Take `CCN(CC)S(=O)(=O)c1cc(NC(=O)COC(=O)c2c(C)noc2C)ccc1C`: the AC50 under setting [1] was 6.51 µM [falling, partial curve]. Same read-out and setting: then `O=C(NCCC1=CCCCC1)c1ccc2c(=O)n3nc(Nc4ccccc4)sc3nc2c1`, with 10 µM [falling, partial curve]; and `CCN(CCCNC(=O)CN1C(=O)COc2ccccc21)c1cccc(C)c1`, with 6.51 µM [rising, partial curve, poor fit]; and `Cc1ccc2nc(-c3ccc(NS(=O)(=O)c4ccc(F)c(F)c4)cc3)sc2c1`, with 16.4 µM [falling, single point]. Still for that read-out and setting: then `CC(C)[C@H](NC(=O)NCc1ccco1)C(=O)O`, with 17.8 µM [falling, single point]; and `Cc1cc(C)cc(-n2c(N)c(C(=O)Nc3c(C)n(C)n(-c4ccccc4)c3=O)c3nc4ccccc4nc32)c1`, with 29.1 µM [falling, single point]. As for `CCSC1=C(C#N)C(c2cccc(OC)c2)CC(=O)N1` (centres undefined), the half-maximal activity concentration (AC50) under setting [1] was 5.8 µM [falling, single point].

Regarding `Cc1ccc(NC(=O)c2ccc(OC(=O)CCN3C(=O)c4ccccc4C3=O)cc2)cc1`, the concentration at half-maximal activity (AC50) under setting [1] was 14.6 µM [falling, partial curve, poor fit].

In the case of `CC1(C)CC(=O)C2=C(C1)Oc1ncn3nc(-c4cccnc4)nc3c1C2c1ccccc1` (centres undefined), the AC50 under setting [1] is 31.6 µM [rising, partial curve, poor fit].

For `N/C(=N\OC(=O)c1ccc(F)cc1)c1cccc([N+](=O)[O-])c1`, the AC50 under setting [1] is 0.355 µM [rising, full curve, poor fit].

On to `O=C(CSc1n[nH]c(=O)n1C1CC1)Nc1ccc(F)c(Cl)c1`, for which, under setting [1], the half-maximal activity concentration (AC50) is 18.4 µM [falling, single point].

As for `CN(C)c1nc(=Nc2cccc(Cl)c2)ss1`, the half-maximal activity concentration (AC50) was 3.98 µM [falling, full curve, poor fit] under setting [1] and 1.12 µM [falling, full curve] under setting [2]. With `CCOc1ccc(C2=NNC(c3cccs3)=Nc3ccc(OC)cc32)cc1`, under setting [1], the AC50 was 29.1 µM [falling, single point].

On to `COc1cccc(NC(=O)C2CCN(c3nnc(C)c4c(C)n(-c5ccccc5)nc34)CC2)c1`, for which the AC50 under setting [1] is 22.4 µM [falling, single point]. Same read-out and setting: for `CN(CC(=O)Nc1ccc(F)c(F)c1F)C(=O)CC1CCCCC1` the value was 25.9 µM [rising, single point]; for `COc1cccc(C(c2c(NC(=O)c3ccco3)sc(C)c2C)N2CCOCC2)c1` (centres undefined), 20.6 µM [falling, single point]; for `Cn1c(=O)n(CCc2ccccc2)c(=O)c2c1nc1n2CCN1Cc1ccco1`, 11.2 µM [falling, partial curve]. Consider `Cc1cc(C)nc(-n2nc(C)cc2NC(=O)c2ccc(S(=O)(=O)N3CCOCC3)cc2)n1`, for which, under setting [1], the AC50 was 3.16 µM [falling, partial curve, poor fit]. `O=C(CSc1ncn[nH]1)c1cccc([N+](=O)[O-])c1`: the concentration at half-maximal activity (AC50) under setting [2] was 20.6 µM [falling, single point].

As to `Cc1ccc(NC(=O)NC2CCCc3ccccc32)cc1` (centres undefined), the AC50 under setting [1] was 1 µM [falling, full curve, poor fit]. Same read-out and setting: then `O=C(CCCOc1ccc(Cl)cc1Cl)NCC1CCCO1` (centres undefined), with 29.1 µM [rising, single point]. Still for that read-out and setting: for `COc1ccccc1N1CCN(C(=O)Nc2ccc([N+](=O)[O-])cc2)CC1` the value was 0.0651 µM [rising, full curve, poor fit]; for `COC(=O)c1sccc1NC(=O)COc1ccccc1Cl`, 6.51 µM [falling, partial curve]; for `O=C(O)Cc1nn(Cc2ccc(Cl)cc2)c(=O)c2ccccc12`, 11.2 µM [falling, partial curve]. The same measure, in the same setting: then `CCOc1ccccc1N(CC(=O)Nc1ccccc1C(=O)N1CCCC1)S(C)(=O)=O`, with 5.62 µM [falling, single point]. In the case of `C=CCN(C(=O)COC(=O)c1cc[n+]([O-])cc1)c1nc(-c2ccccc2)cs1`, the AC50 under setting [1] was 2.59 µM [rising, partial curve, poor fit]. For `COc1ccccc1NS(=O)(=O)c1cccc(C(=O)N/N=C/c2ccc([N+](=O)[O-])o2)c1`, the half-maximal activity concentration (AC50) under setting [1] was 16.4 µM [falling, partial curve]. The same measure, in the same setting: then `COc1ccc(C2C(C#N)=C(N)N(Nc3ccccc3)C3=C2C(=O)CC(C)(C)C3)cc1C` (centres undefined), with 11.2 µM [falling, partial curve]; and `O=c1c2c(nc3c(-c4ccccc4)c[nH]n13)CCC2`, with 12.6 µM [falling, partial curve]; and `Cc1ccccc1NC(=O)Nc1nc2ccc(S(C)(=O)=O)cc2s1`, with 2.59 µM [falling, full curve].

With `CC1Oc2ccccc2C=C1/C=N\NC(=O)c1cccnc1` (centres undefined), under setting [1], the half-maximal activity concentration (AC50) was 35.5 µM [falling, single point]. Consider `CCN(CC)S(=O)(=O)c1ccc(-c2csc(C)n2)s1`, for which the half-maximal activity concentration (AC50) under setting [1] was 7.08 µM [rising, full curve, poor fit].
